At least one structure is not confirmed: it was looked up by name or label, or the drawing left a doubt.
Tested on: men and women with moderate peripheral GnRH levels
Test: Randomized controlled trial in subjects with peripheral GnRH above 160 pg/mL (age related inflammation)
Type: in vivo, human
Conditions: Elagolix combined with gonadal replacement vs placebo, follow up of 5 years

COc1cccc(-c2c(C)n(Cc3c(F)cccc3C(F)(F)F)c(=O)n(C[C@H](NCCCC(=O)O)c3ccccc3)c2=O)c1F [Elagolix]
all-cause mortality: reduction

Reference: patent US10821152B2, “Methods, agents and compositions for treatment of inflammatory conditions” (Betanien Hospital, priority 2014, dated 2020)
